Laboratory results: PubChem BioAssay AID192 (DTP/NCI, 2004)
The list shows only some results of the screen, not a fair sample: its compounds were picked by chemical class. Not every dose and run of a compound is shown. T/C is the treated group as % of the vehicle group. Some doses have a count of surviving animals in place of a T/C: the source files T/C as zero there, which appears to mark a toxic dose or a test without result, not a measured value. Some doses without a T/C left all or most animals alive at the check, yet need not have been tolerated: survival well below the control is almost never listed, so the zero probably covers shortened survival too. Counts of survivors are from the toxicity check (mostly the fifth day) where no day follows; animals may have died later. Schedules are NCI's codes, read here as Q, the interval in days (D) or hours (H), X, the number of doses. For survival time, the PubChem record calls one and a half times the control and up active, and a quarter to a half above the control has no call in these data; cut-offs in other NCI protocols can differ. Some entries show no survivor count and are marked so; the dose need not have been tolerated. Some doses were run more than once; the results are listed from low to high.

System: BDF1 mice, B16 melanoma ip, median survival T/C
Experiment: NCI In Vivo Anticancer Drug Screen. Data for tumor model B16 Melanoma (intraperitoneal) in B6D2F1 (BDF1) mice
Details: T/C endpoint: median survival time, schedule: Q01DX009 (ip), higher T/C = longer survival
Procedure, shortened: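 Values are ratios of treated (T) to vehicle-control (C) measurements of survival or tumor size in tumor-bearing mice.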

[1] = dose: 12.5 mg/kg/injection, vehicle: Klucel (hydroxypropylcellulose) (HPC)
[2] = dose: 25.0 mg/kg/injection, vehicle: Klucel (hydroxypropylcellulose) (HPC)
[3] = dose: 50.0 mg/kg/injection, vehicle: Klucel (hydroxypropylcellulose) (HPC)
[4] = dose: 100.0 mg/kg/injection, vehicle: Klucel (hydroxypropylcellulose) (HPC)
[5] = dose: 200.0 mg/kg/injection, vehicle: Klucel (hydroxypropylcellulose) (HPC)

Compound: CCOc1ccc(N(CCCl)CCCl)cc1
- T/C (dose: 3.12 mg/kg/injection, vehicle: Klucel (hydroxypropylcellulose) (HPC)): 122 % of control
- T/C (dose: 6.25 mg/kg/injection, vehicle: Klucel (hydroxypropylcellulose) (HPC)): 134 % of control
- T/C [1]: 146 % of control
- T/C [2]: 172 % of control
- T/C [3]: 197 % of control
- survivor count [4]: 10 of 10

Compound: ClCCN(CCCl)c1ccc(Oc2ccccc2)cc1
- T/C [1]: 98 % of control [survivor count not shown]
- T/C [2]: 102 % of control [survivor count not shown]
- T/C [3]: 98 % of control [survivor count not shown]
- T/C [4]: 114 % of control [survivor count not shown]
- T/C [5]: 139 % of control [survivor count not shown]
- T/C (dose: 400.0 mg/kg/injection, vehicle: Klucel (hydroxypropylcellulose) (HPC)): 108 % of control [survivor count not shown]

Compound: COc1ccc(C(=O)O)cc1N(CCCl)CCCl
- T/C (dose: 0.25 mg/kg/injection, vehicle: Klucel (hydroxypropylcellulose) (HPC)): 107 % of control [survivor count not shown]
- T/C (dose: 0.5 mg/kg/injection, vehicle: Klucel (hydroxypropylcellulose) (HPC)): 107 % of control [survivor count not shown]
- T/C (dose: 1.0 mg/kg/injection, vehicle: Klucel (hydroxypropylcellulose) (HPC)): 109 [survivor count not shown] and 117 % of control [survivor count not shown]
- T/C (dose: 1.0 mg/kg/injection, vehicle: saline with Tween-80): 121 [survivor count not shown] and 169 % of control [survivor count not shown]
- T/C (dose: 2.0 mg/kg/injection, vehicle: Klucel (hydroxypropylcellulose) (HPC)): 117 [survivor count not shown] and 144 % of control [survivor count not shown]
- T/C (dose: 2.0 mg/kg/injection, vehicle: saline with Tween-80): 145 [survivor count not shown] and 153 % of control [survivor count not shown]
- T/C (dose: 4.0 mg/kg/injection, vehicle: Klucel (hydroxypropylcellulose) (HPC)): 117 [survivor count not shown] and 160 % of control [survivor count not shown]
- T/C (dose: 4.0 mg/kg/injection, vehicle: saline with Tween-80): 127 [survivor count not shown] and 158 % of control [survivor count not shown]
- T/C (dose: 8.0 mg/kg/injection, vehicle: saline with Tween-80): 163 [survivor count not shown] and 243 % of control [survivor count not shown]

Compound: N#CC(C#N)=Cc1ccc(N(CCCl)CCCl)cc1
- T/C [1]: 93 % of control [survivor count not shown]
- T/C [2]: 94 % of control [survivor count not shown]
- T/C [3]: 96 % of control [survivor count not shown]
- T/C [4]: 94 % of control [survivor count not shown]
- T/C [5]: 108 % of control [survivor count not shown]

Compound: COC(=O)CCc1ccc(CN(CCCl)CCCl)cc1
- T/C (dose: 0.37 mg/kg/injection, vehicle: saline): 94 % of control [survivor count not shown]
- T/C (dose: 0.75 mg/kg/injection, vehicle: saline): 108 % of control [survivor count not shown]
- T/C (dose: 1.5 mg/kg/injection, vehicle: saline): 108 % of control [survivor count not shown]
- T/C (dose: 3.0 mg/kg/injection, vehicle: saline): 118 % of control [survivor count not shown]
